Drawing on publication PMC6219514, “Structural basis of Gip1 for cytosolic sequestration of G protein in wide-range chemotaxis” (Nature Communications, 2018), this text covers binding for one molecule.

No constants are given. Whether binding was seen depends on the method and setting. In cells and extracts the contact can be indirect. Some binding calls cover weakened binding; strength is not graded here.

Assay [1] deals with T1, F2G-Gγ(ΔCAAX) (Dictyostelium discoideum) (UniProt Q95ZG8).
T1 sequence: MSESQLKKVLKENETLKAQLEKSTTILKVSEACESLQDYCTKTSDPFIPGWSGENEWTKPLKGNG
Kind of assay: co-IP; 'pull-down assay': Dictyostelium cells expressing Flag-tagged proteins starved 2 h, lysed in CHAPS buffer (40 mM HEPES pH 7.5, 120 mM NaCl, 0.3% CHAPS); supernatant with anti-Flag M2 beads, 4 °C, 1.5 h; immunoblot. For orientation: Immunoblotting shows a protein as a band on a membrane.

The target of assay [2] is T2, F2G-Gγ(WT) (Dictyostelium discoideum) (UniProt Q95ZG8).
T2 sequence (chain, C-terminal cysteine Cys66 geranylgeranylated and methylated): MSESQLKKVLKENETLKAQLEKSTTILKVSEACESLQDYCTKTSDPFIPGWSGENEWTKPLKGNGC
Put plainly: co-IP; isolation of Gβγ for the in vitro assay: lysate in NP40 buffer (40 mM HEPES pH 7.5, 300 mM NaCl, 1% NP40) with anti-Flag M2 beads, 4 °C, 1 h, washed; Flag-tagged Gγ as bait.

B1: Gβ, endogenous (protein, UniProt P36408 1-347)
chain: MSSDISEKIQQARRDAESMKEQIRANRDVMNDTTLKTFTRDLPGLPKMEGKIKVRRNLKGHLAKIYAMHWAEDNVHLVSASQDGKLLVWDGLTTNKVHAIPLRSSWVMTCAYSPTANFVACGGLDNICSIYNLRSREQPIRVCRELNSHTGYLSCCRFLNDRQIVTSSGDMTCILWDVENGTKITEFSDHNGDVMSVSVSPDKNYFISGACDATAKLWDLRSGKCVQTFTGHEADINAVQYFPNGLSFGTGSDDASCRLFDIRADRELMQYTHDNILCGITSVGFSFSGRFLFAGYDDFTCNVWDTLKGERVLSLTGHGNRVSCLGVPTDGMALCTGSWDSLLKIWA
Turning to B1, the binding entry in assay [1] and in assay [2] was “binds” in each case.
